Results are given in words; binding and its absence hold for the method and conditions named. Some binding calls cover weakened binding; strength is not graded here.
Biological target: monomeric soluble human CD200R extracellular domain (human) (UniProt Q8TD46)
Assay: SPR (Biacore 3000), human CD200 injected over human CD200R extracellular domain held by the immobilised non-competing anti-CD200R antibody, 25 C

The chains behind the UniProt entries cited, without tags or fusion partners. Residues count along the entry.
UniProt Q8TD46, residues 29-265: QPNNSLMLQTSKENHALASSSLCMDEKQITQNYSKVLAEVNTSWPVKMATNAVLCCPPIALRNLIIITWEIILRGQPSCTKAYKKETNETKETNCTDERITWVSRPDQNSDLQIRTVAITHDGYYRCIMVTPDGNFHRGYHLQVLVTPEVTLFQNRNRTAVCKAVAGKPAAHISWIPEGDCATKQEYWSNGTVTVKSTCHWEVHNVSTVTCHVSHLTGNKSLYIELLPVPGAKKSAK

B1: human CD200 (ligand, UniProt P41217 31-232, looked up)
chain: QVQVVTQDEREQLYTPASLKCSLQNAQEALIVTWQKKKAVSPENMVTFSENHGVVIQPAYKDKINITQLGLQNSTITFWNITLEDEGCYMCLFNTFGFGKISGTACLTVYVQPIVSLHYKFSEDHLNITCSATARPAPMVFWKVPRSGIENSTVTLSHPNGTTSVTSILHIKDPKNQVGKEVICQVLHLGTVTDFKQTVNKG
binding: binds

Source: patent publication US20230416361A1
